The target of assay [1] is T1, USP39 Venus BiFC construct (UniProt Q53GS9).
T1 sequence: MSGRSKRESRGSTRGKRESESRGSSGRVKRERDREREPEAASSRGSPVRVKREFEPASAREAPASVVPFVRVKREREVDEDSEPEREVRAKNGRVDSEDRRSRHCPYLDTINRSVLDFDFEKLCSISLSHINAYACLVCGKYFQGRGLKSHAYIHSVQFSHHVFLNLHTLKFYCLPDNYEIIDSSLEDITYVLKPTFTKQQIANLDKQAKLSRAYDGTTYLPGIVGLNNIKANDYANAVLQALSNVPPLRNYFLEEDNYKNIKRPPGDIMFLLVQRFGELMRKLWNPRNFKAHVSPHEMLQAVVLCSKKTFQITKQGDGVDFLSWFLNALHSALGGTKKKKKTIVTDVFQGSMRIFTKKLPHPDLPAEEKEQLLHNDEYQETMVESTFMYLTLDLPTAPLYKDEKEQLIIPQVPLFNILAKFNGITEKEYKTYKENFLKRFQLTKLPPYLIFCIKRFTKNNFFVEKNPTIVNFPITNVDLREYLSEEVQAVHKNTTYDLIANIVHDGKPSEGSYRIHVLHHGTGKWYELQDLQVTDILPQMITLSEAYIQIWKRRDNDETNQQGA
The experiment in a line: split reporter.

The chains behind the UniProt entries cited, without tags or fusion partners.
UniProt Q13263: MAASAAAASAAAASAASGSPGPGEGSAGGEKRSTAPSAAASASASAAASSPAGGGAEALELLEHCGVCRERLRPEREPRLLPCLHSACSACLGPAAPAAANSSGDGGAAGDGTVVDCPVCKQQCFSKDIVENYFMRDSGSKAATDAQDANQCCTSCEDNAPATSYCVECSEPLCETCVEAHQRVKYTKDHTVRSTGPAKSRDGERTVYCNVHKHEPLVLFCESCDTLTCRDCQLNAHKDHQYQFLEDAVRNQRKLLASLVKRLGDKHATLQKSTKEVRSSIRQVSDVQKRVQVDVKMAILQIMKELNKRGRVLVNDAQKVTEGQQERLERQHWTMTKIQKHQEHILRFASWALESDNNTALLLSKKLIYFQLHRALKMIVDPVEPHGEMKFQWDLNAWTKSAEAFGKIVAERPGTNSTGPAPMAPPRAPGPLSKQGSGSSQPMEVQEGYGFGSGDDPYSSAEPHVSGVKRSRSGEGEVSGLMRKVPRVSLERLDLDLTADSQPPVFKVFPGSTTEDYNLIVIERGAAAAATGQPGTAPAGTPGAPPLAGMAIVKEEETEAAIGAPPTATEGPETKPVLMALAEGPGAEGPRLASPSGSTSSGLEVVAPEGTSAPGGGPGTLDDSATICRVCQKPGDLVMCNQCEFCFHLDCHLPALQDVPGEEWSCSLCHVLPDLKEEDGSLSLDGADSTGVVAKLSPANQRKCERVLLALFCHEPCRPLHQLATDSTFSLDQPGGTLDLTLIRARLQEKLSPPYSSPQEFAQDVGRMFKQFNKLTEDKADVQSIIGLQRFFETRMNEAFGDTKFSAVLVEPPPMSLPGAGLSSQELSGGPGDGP

Assay [2] addresses T1, USP39 Venus BiFC construct. Kind of assay: split reporter. This is another data set of the same source.
Assay [3] addresses T2, USP39-mCherry (wildtype) (UniProt Q53GS9).
T2 sequence: T1 sequence
Kind of assay: co-IP.

This is an account of results in paper doi:10.1101/2025.07.07.663440.

Like-named read-outs stand apart in the source and are kept apart here. No constants are given. Whether binding was seen depends on the method and setting. Binding seen in cells or lysates may run through a third protein. Some binding calls cover weakened binding; strength is not graded here.

Regarding “TRIM28 Venus BiFC construct (from UniProt Q13263 1-835)”, the binding entry in assay [1] and in assay [2] was “binds” in each case.

For the substance “Tripartite motif-containing 28 protein (TRIM28), endogenous, non-phosphorylated state (from UniProt Q13263 1-835)”, the binding result in assay [3] was “binds”.
